In PMC10022742:
Positions count from the first letter of the chain named. No constants are given. Whether binding was seen depends on the method and setting. In cells and extracts the contact can be indirect. Some entries that bind do so weakly or less than the wild type. Where a sequence is shown, tags or fusion partners need not be part of it.

By UniProt entry, the sequences of proteins in these tests, tags left out. Residues count along the entry.
UniProt Q38SD2, residues 28-2015: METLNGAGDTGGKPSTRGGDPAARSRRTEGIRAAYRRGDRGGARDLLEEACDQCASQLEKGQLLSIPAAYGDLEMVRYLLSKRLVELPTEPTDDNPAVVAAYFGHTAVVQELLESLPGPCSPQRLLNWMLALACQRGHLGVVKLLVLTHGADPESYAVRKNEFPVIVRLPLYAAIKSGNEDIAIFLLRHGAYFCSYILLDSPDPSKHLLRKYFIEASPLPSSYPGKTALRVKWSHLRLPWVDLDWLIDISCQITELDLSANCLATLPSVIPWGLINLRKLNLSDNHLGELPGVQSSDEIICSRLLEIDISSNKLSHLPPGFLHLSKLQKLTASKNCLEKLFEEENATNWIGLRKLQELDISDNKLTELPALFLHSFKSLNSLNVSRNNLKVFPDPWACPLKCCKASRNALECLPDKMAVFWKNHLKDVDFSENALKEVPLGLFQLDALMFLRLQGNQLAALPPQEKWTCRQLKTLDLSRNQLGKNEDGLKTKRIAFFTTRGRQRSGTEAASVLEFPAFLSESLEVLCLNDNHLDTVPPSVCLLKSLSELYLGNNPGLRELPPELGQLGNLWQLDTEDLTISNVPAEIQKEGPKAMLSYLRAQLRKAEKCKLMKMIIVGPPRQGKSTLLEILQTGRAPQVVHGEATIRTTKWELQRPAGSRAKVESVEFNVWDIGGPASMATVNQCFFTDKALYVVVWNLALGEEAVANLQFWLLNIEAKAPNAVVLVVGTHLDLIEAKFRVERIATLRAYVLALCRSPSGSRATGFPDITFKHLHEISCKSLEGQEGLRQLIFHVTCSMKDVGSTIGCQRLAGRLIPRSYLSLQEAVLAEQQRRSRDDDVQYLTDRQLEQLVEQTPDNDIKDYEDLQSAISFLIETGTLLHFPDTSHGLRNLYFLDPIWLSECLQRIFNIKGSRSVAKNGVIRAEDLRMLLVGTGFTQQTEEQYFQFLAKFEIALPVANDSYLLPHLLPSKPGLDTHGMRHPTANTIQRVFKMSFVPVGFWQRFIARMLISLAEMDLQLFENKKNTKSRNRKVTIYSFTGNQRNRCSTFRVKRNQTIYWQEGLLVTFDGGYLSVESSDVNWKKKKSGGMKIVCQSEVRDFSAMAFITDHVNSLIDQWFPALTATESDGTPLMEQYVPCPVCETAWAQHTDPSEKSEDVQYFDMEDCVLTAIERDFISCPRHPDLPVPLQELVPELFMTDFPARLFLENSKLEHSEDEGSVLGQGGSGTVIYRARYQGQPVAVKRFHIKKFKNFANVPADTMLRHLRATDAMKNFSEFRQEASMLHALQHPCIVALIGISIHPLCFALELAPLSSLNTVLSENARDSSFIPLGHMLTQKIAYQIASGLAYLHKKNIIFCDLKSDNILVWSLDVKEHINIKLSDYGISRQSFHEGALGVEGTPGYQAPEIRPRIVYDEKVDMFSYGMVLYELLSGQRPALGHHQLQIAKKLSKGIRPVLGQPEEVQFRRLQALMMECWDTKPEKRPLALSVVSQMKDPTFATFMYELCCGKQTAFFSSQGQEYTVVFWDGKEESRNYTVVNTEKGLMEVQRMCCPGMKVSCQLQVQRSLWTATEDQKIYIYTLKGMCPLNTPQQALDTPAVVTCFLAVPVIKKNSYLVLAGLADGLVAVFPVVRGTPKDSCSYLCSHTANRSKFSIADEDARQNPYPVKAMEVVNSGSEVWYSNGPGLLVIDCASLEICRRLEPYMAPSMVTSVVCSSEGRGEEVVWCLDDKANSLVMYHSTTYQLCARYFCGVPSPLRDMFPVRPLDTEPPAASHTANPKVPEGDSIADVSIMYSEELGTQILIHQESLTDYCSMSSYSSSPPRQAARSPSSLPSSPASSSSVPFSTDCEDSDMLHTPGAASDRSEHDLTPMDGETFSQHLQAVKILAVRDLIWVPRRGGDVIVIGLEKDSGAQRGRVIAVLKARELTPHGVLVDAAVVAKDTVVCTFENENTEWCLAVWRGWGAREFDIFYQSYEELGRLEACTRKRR

Columns and labels:
Flag–PTP1B = target: T1, Flag–PTP1B (UniProt P18031); test: co-IP; HEK293 cells co-transfected, serum-starved 16 h, stimulated with EGF (50 ng/ml) for the indicated times (0 or 10 min for EGFR); cells treated with control or LRRK1 siRNA in the EGFR experiment; RIPA lysates; IP with anti-Flag (M2) on Dynabeads Protein G, 2 h at 4°C; blot with anti-GFP or anti-EGFR
T1 sequence: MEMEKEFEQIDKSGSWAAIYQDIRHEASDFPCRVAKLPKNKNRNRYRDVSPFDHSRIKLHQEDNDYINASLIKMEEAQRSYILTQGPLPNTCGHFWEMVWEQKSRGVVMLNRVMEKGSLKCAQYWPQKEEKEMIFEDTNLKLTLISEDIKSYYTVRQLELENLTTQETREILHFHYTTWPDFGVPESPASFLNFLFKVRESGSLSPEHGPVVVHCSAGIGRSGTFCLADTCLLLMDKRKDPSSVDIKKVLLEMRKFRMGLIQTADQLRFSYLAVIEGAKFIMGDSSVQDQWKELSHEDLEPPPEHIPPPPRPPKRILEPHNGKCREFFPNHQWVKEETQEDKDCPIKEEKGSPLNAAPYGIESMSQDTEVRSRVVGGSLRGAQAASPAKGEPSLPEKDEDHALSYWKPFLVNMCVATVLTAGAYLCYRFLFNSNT

Flag–PTP1B(C215S) = target: T2, Flag–PTP1B(C215S) (UniProt P18031); test: as above
T2 sequence: T1 sequence with C215S

**Q.** What does the source list for “GFP–LRRK1 (leucine-rich repeat kinase 1) (from UniProt Q38SD2-1 28-2015)”?
**A.** binding (Flag–PTP1B): binds; binding (Flag–PTP1B(C215S)): binds
